Reference: PubChem BioAssay AID2685 (National Center for Advancing Translational Sciences (NCATS), 2010)
Where “and” joins values, the source holds several entries; their conditions need not be identical. Equal values may be shown once. The list shows a part of the results. The main result of the screen is listed elsewhere. These columns were measured beside it and carry no call. The list favours compounds with an active or inconclusive main result. Words in brackets tell the shape of the fitted curve; partial curves, single points and poor fits give uncertain potencies.

Assay: qHTS Assay for Lipid Storage Modulators in Drosophila S3 Cells;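 on cell number change: cells counted by Cell Tracker Red CMTPX staining in the red channel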
Conditions: BODIPY lipid droplet fluorescence, 18-24 h; for cell number change: measured here: cell count max response, cells fed with added oleic acid
Summary of the method: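 Drosophila S3 cells got compounds at several concentrations plus oleic acid (400 uM solution). Laser-scanning cytometry with 488 nm excitation read lipid droplets at 500-530 nm and cells at 575-640 nm. Percent activity was relative to 20 uM Triacsin C.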

[1] = measured here: lipid fluorescence (Fed channel) AC50, cells fed with added oleic acid
[2] = measured here: cell number channel AC50, cells fed with added oleic acid

| SMILES | cell number change | AC50 [1] | AC50 [2] |
| --- | --- | --- | --- |
| C=Cn1cc[n+](CC(=O)c2ccc(Br)cc2)c1 | -6.59% | 20.6 µM [falling, single point] | – |
| O=C(c1ccccc1)c1cc(-c2ccccn2)c(N2CCOCC2)s1 | 10.9% | 0.731 µM [rising, partial curve] | – |
| COc1ccc(NCC(O)Cn2cnc3c2c(=O)n(C)c(=O)n3C)cc1 (centres undefined) | -13.8% | – | – |
| CCc1ccc(CN(C)CCc2ccccn2)cc1 | -72% | – | 29.1 µM [falling, single point] |
| CN(Cc1cnn(C)c1)Cc1nc(Cc2ccccc2Cl)no1 | 19.7% | – | – |
| Cc1cc(=O)cc(C)n1-c1ccc(F)cc1F | -47.1% | 0.92 µM [falling, full curve] | 0.82 µM [falling, full curve] |
| COCCn1c(Cc2ccccc2)nnc1SC(C)C(=O)NC1CC1 (centres undefined) | 7.37% | 0.411 µM [falling, single point] | – |
| NS(=O)(=O)c1ccc(NC(=S)NC(=O)c2ccco2)cc1 | 21.6% and 4.54% | 2.91 µM [rising, single point] | – |
| O=c1c2ccccc2ncn1Cc1ccccc1 | 24.3% | 1.46 µM [rising, full curve, poor fit] | – |
| COC(=O)[C@H](CC(C)C)NS(=O)(=O)c1ccccc1 | 9.06% | – | – |
| Cc1cccc(NS(=O)(=O)c2cc3c4c(c2)CC(=O)N4CCC3)c1C | -74.6% | 29.1 µM [falling, single point] | 29.1 µM [falling, single point] |
| CCc1ccc(-c2nc(CSCC(=O)N3CCN(c4ncccn4)CC3)c(C)o2)cc1 | – | 4.11 µM [falling, single point] | – |
| CC(=O)c1ccc(N2C(=NC(=O)C3CCCCC3)SC3CS(=O)(=O)CC32)cc1 (centres undefined) | 15.3% | 14.6 µM [falling, partial curve, poor fit] | – |
| Cc1cc(C)n(C)c(=O)c1C#N | -24.4% | 29.1 µM [falling, single point] | – |
| COc1ccc(C(=O)OCC(=O)Nc2c(C)n(C)n(-c3ccccc3)c2=O)cc1OC | -17.7% | 29.1 µM [falling, single point] | – |
| COc1ccc([N+](=O)[O-])cc1C(=O)C(=O)c1ccccc1 | -19% | 16.4 µM [falling, single point] | – |
| CC(C(=O)NC1CCCC1)N(C(=O)c1snc(C(N)=O)c1N)c1ccc2c(c1)OCCO2 (centres undefined) | -29% | 20.6 µM [falling, single point] | – |
| CCc1cccc(NC(=O)C2CCCN(c3cnccn3)C2)c1 (centres undefined) | 14% | 6.51 µM [falling, single point] | – |
| CC(=O)Nc1ccc(OCC(=O)NCc2ccccc2)cc1 | 26.1% | 6.51 µM [rising, single point] | – |
| Cc1nc2scc(-c3cccs3)c2c(=O)o1 | 22.5% | 13 µM [rising, partial curve] | – |
| COc1ccc(OCCNC(=O)/C=C/c2ccc([N+](=O)[O-])cc2)cc1 | 24% | – | – |

One compound at a time (already shown). Values in the order: cell number change	AC50 [1]	AC50 [2]
COc1ccc([N+](=O)[O-])cc1C(=O)C(=O)c1ccccc1 is listed as -19%	16.4 µM [falling, single point]	–
Cc1cc(C)n(C)c(=O)c1C#N is listed as -24.4%	29.1 µM [falling, single point]	–
CCc1ccc(CN(C)CCc2ccccn2)cc1 is listed as -72%	–	29.1 µM [falling, single point]
CC(=O)c1ccc(N2C(=NC(=O)C3CCCCC3)SC3CS(=O)(=O)CC32)cc1 (centres undefined) is listed as 15.3%	14.6 µM [falling, partial curve, poor fit]	–

More results.

| SMILES | cell number change | AC50 [1] | AC50 [2] |
| --- | --- | --- | --- |
| CCc1noc(C)c1C(=O)N(CCC(C)C)c1c(N)n(Cc2ccccc2)c(=O)[nH]c1=O | -15.3% | 2.31 µM [rising, partial curve] | – |
| O=C(c1ccc(Cl)cc1[N+](=O)[O-])N1CCN(c2ccccn2)CC1 | -9.24% | 1.16 µM [falling, partial curve] | – |
| Nc1c(C(=O)Nc2ccc3c(c2)OCCO3)nnn1Cc1ccccc1Cl | -24.9% | 18.4 µM [falling, single point] | – |
| COc1ccccc1NS(=O)(=O)c1cc(NC(=O)CNC(=O)c2cc(C)cc(C)c2)ccc1C | -10.2% | 5.8 µM [rising, full curve] | – |
| COc1ccc(N(C)S(=O)(=O)c2cccc(C(=O)N(C)Cc3ccc(C)o3)c2)cc1 | – | 7.31 µM [rising, partial curve] | – |
| Cc1ccnc(NC(=O)c2cccc(S(=O)(=O)N3CCN(c4ccccc4)CC3)c2)c1 | 2.83% | – | 6.51 µM [rising, single point] |
| CCc1ccc(CNC(=O)C2CCCN(c3nc4ccccc4o3)C2)cc1 (centres undefined) | 14.8% | 5.17 µM [rising, single point] | – |
| C=C(C)Cn1c(SCC(=O)O)nc2c1c(=O)[nH]c(=O)n2C | -45.3% | 5.17 µM [falling, full curve] | 4.11 µM [falling, full curve] |
| CC(C)(C(=O)O)n1cncn1 | -32.6% | 0.116 µM [falling, full curve, poor fit] | 32.6 µM [falling, single point] |
| CCc1ccccc1NC(=O)CNC(=O)c1cn(Cc2ccccc2)nc1-c1cccnc1 | -36.1% | 1.84 µM [falling, partial curve] | 32.6 µM [falling, single point] |
| CCOC(=O)c1cc(C)sc1NC(=O)CCC(=O)O | – | 18.4 µM [falling, single point] | – |
| CCc1ccccc1NC(=O)c1ccc([N+](=O)[O-])s1 | -57.5% | 29.1 µM [falling, single point] | 29.1 µM [falling, single point] |
| Cc1ccc(CN2CCC(n3nccc3NC(=O)CCOc3ccccc3)CC2)cc1C | – | 0.116 µM [falling, single point] | – |
| O=C(OCn1nnc2ccccc2c1=O)c1ccc(S(=O)(=O)N2CCOCC2)cc1 | 14.1% | 3.26 µM [falling, full curve, poor fit] | – |
| COCCNC(=S)Nc1ccc2nc(N3CCN(C)CC3)cc(C)c2c1 | -2.7% | 29.1 µM [rising, single point] | – |
| COc1ccc(C(=O)c2ccc(-c3ccc(OC)cc3)nc2)cc1 | -4.17% | – | – |
| CC(C)(C)C(=O)O/N=C(\N)c1ccc(-c2csnn2)cc1 | 12.5% | 6.51 µM [falling, single point] | – |
| CCOC(=O)C1=C(C)N(CCCC(=O)NCc2ccc3c(c2)OCO3)C(=O)NC1c1ccc(Br)cc1 (centres undefined) | 8.38% | 0.731 µM [rising, full curve, poor fit] | – |
| CC(C)(C)OC(=O)N1Cc2ccccc2C[C@H]1C(=O)NCC(=O)NCC1CCCO1 (some centres undefined) | 21.4% | 1.3 µM [falling, full curve] | – |
| CCN(CC)CCn1c2c(c(SCC(=O)Nc3cc(C)ccc3C)nc1=O)CCC2 | 24.5% | 8.2 µM [rising, partial curve] | – |
| COc1ccc(S(=O)(=O)NCC(=O)N(CC(=O)NCc2ccco2)Cc2ccc(F)cc2)cc1 | -25.7% | 1.3 µM [falling, partial curve] | – |

| SMILES | cell number change | AC50 [1] | AC50 [2] |
| --- | --- | --- | --- |
| COCCOc1ccc(C(F)(F)F)cc1NC(=O)COC(=O)C1=COCCO1 | – | – | 1.64 µM [rising, partial curve] |
| CC(=O)c1ccc(OC(=O)COc2ccccc2Cl)cc1 | -39.2% | – | 29.1 µM [falling, single point] |
| C=CCn1c(Cc2cccs2)nnc1SCC(=O)c1cccc(Br)c1 | 5.46% | – | – |
| O=C(NNC(=O)C(c1ccccc1)c1ccccc1)c1ccccn1 | -28.1% | 0.92 µM [falling, partial curve, poor fit] | – |
| O=C(Nc1ccc(Br)cc1F)C1CCN(c2nnc(-n3cccc3)s2)CC1 | -0.167% | 29.1 µM [rising, single point] | – |
| CC1(C(=O)Nc2nnc(SCc3ccccc3)s2)Cc2ccccc2C(=O)O1 (centres undefined) | – | 1.03 µM [rising, full curve] | 6.51 µM [rising, single point] |
| CCOCc1nnc(NC(=O)COc2ccc3c(c2)OCO3)s1 | 10.5% | 29.1 µM [rising, single point] | – |
| Cc1ccc(C(C)C)c(OCC(=O)NC(=S)Nc2ccccc2N2CCOCC2)c1 | -16% | 23.1 µM [rising, partial curve] | – |
| c1cn(CCCNc2ncnc3nc[nH]c23)cn1 | -71.6% | – | 29.1 µM [falling, single point] |
| CC(=O)c1cccc(N(C(=O)c2ccco2)C(C(=O)NC2CCCC2)c2ccccc2F)c1 (centres undefined) | -6.09% | 0.58 µM [falling, single point] | – |
| CC(OC(=O)c1ccc2c(=O)n3c(nc2c1)CCCCC3)C(=O)Nc1ccc(F)cc1Cl (centres undefined) | 13.7% | 25.9 µM [rising, single point] | – |
| CCN1CCN(C(=S)c2ccc(Cl)c(Cl)c2)CC1 | 21.2% | 1.46 µM [falling, partial curve] | 0.206 µM [falling, full curve, poor fit] |
| Cc1ccc(S(=O)(=O)NC(=O)Nc2cc(C(C)(C)C)on2)cc1 | 1.96% | 4.11 µM [rising, single point] | – |
| COc1ccc(N2CC(NC(=O)c3cccc4ccccc34)CC2=O)cc1OC (centres undefined) | 52.7% | – | 16.4 µM [rising, single point] |
| COCCOC(=O)C1=C(C)NC(=O)NC1c1cccc2ccccc12 (centres undefined) | -3.02% | 18.4 µM [falling, single point] | 0.00517 µM [rising, full curve, poor fit] |
| CCOC(=O)c1ccc(N/C=C/C(=O)c2ccc(OC)c(OC)c2)cc1 | -27.3% | 29.1 µM [falling, single point] | – |
| CC(C)C(C)NC(=O)Cn1cnc2c(oc3ccccc32)c1=O (centres undefined) | 0.451% | 29.1 µM [falling, single point] | – |
| Cn1ccc(C(=O)OCC(=O)Nc2cccc(Cl)c2)n1 | -21.8% | 4.61 µM [falling, single point] | – |
| O=C(CSCc1c(F)cccc1Cl)NCc1ccco1 | -56.8% | – | 5.8 µM [falling, partial curve] |
